Measured values reported in doi:10.1101/2024.10.21.619451.

Amino acid sequences for entries named in this document (tags omitted).
UniProt F4HW04: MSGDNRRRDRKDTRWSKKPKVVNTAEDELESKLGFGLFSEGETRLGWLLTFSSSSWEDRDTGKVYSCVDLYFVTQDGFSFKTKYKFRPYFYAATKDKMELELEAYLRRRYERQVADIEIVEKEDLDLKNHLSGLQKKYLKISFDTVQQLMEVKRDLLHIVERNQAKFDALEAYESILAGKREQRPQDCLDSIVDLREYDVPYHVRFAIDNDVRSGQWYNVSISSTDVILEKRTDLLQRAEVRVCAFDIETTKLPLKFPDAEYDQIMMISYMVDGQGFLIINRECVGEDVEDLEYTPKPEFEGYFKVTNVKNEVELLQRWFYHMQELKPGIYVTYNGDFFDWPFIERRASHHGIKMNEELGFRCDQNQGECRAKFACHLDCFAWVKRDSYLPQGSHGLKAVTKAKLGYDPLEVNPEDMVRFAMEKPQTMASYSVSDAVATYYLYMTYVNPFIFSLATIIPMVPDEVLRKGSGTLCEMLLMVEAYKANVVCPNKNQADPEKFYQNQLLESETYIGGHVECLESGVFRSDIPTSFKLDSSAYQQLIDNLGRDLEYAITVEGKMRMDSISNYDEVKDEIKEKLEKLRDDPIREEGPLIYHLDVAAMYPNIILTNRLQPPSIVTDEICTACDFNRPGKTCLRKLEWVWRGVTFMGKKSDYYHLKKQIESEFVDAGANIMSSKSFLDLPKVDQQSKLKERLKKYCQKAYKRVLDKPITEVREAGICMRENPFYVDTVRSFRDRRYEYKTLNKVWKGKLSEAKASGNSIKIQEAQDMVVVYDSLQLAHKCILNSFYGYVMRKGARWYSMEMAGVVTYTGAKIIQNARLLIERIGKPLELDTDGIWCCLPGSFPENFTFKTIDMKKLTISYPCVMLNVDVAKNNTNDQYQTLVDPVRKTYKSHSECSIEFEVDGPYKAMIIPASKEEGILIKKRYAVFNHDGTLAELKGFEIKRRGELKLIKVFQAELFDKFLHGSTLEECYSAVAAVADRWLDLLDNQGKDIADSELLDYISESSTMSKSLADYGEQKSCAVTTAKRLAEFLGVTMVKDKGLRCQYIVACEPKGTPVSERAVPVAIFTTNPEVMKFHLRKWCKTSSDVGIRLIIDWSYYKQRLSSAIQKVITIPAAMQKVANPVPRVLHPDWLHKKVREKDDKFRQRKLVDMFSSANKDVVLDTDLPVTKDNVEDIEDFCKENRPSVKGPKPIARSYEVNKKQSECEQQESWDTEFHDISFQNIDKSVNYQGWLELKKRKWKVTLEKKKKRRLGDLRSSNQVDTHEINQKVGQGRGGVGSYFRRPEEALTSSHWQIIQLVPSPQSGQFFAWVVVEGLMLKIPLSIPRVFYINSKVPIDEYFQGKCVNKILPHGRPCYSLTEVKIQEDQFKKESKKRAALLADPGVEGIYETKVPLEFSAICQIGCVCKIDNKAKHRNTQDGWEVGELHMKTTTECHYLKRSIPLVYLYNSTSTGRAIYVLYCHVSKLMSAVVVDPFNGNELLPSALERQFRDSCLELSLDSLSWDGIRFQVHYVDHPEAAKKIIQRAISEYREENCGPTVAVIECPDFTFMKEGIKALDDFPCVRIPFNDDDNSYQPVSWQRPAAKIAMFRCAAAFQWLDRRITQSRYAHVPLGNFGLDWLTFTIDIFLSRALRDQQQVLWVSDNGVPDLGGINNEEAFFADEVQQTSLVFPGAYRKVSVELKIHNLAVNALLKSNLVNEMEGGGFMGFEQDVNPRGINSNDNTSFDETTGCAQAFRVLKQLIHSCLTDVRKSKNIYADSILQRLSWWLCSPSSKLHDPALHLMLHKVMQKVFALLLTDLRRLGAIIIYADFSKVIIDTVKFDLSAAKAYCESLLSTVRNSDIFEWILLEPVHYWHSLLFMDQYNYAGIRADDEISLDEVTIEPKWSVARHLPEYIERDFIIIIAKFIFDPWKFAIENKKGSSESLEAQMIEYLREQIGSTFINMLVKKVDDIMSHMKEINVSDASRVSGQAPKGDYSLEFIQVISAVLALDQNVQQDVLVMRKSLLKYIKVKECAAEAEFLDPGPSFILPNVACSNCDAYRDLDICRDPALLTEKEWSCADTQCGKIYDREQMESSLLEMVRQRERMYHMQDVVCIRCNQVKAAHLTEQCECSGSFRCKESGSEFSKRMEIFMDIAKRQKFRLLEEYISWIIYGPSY

Biological target: T1, GS-ULT1 (GS-tagged U…1 fusion protein) (Arabidopsis thaliana) (UniProt Q8GZA8)
T1 sequence: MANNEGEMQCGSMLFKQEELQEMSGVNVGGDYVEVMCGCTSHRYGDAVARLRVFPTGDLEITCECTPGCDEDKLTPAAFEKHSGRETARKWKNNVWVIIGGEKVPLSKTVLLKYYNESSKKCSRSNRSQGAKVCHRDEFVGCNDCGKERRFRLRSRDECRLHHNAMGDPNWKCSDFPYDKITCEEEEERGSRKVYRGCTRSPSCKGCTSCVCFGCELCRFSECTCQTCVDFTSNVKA
Assay: affinity purification with mass spectrometry

binding	Substance
binds	EARLY IN SHORT DAYS 7 (ESD7), endogenous (from UniProt F4HW04 1-2161)
binds	INCURVATA 2 (ICU2), endogenous

These are yes or no findings as the source states them, for the method shown. In cells and extracts the contact can be indirect. A yes stands for co-enrichment or nearness to the bait. Other partners may have been found. Where a sequence is shown, tags or fusion partners need not be part of it.
